Source: patent publication US20230225990A1, “DIMETHYL SULFONE FOR TREATMENT OF CHRONICALLY HEAT STRESSED POULTRY” (Evonik Operations GmbH, priority 2020, published 2023)
Marks after values point to notes of the source that are not given here.

Legend:
[1] = test system: male broilers subjected to chronic cyclic heat stress; assay: Carcass yield and portions on d-40; assay type: in vivo, broiler chickens (Ross 308); details: d-40, relative to bird body weight
Source text: Sampling of two birds per pen (with weight close to average weight of the pen) on d-40 after overnight fasting (no heat stress that day) • Carcass yield, breast percentage, thigh percentage, drumstick percentage and abdominal fat • Carcass yield: with skin, bled, without internal organs, without feet, without head, without neck, without abdominal fat; relative to bird body weight • Breast percentage: skinless, boneless; relative to bird body weight • Thigh percentage: with skin, with bone; relative to bird body weight • Drumstick percentage: with skin, with bone; relative to bird body weight • Abdominal fat percentage: abdominal fat; relative to bird body weight • Breast meat quality • Scoring of breast myopathies (wooden breast and white striping) • Wooden breast: normal, 0; mild, 1 and severe, 2 • White striations: normal, 0; mild, 1, and severe, 2 • pH and colour, both at time 0 h and 24 h (after sampling at time 0 h, breasts are stored at 4° C. until 24 h) • Drip loss, determined for periods 0-24 h and for period 0-72 h (after sampling at time 0 h, breasts are stored at 4° C. until 72 h, and weight without exuded water at 24 h and 72 h) • Press loss, determined at 24 h (after sampling at time 0 h, breasts are stored at 4° C. until 24 h, prior to determine press loss) • Oxidative stability (TBARS after simulated retail display)

[2] = test system: male broilers subjected to chronic cyclic heat stress; assay: Breast meat characteristics on d-40; assay type: in vivo, broiler chickens (Ross 308); details: for Drip loss 0-24 h / Drip loss 0-72 h / Press loss / TBARS: breast; for Drip loss 0-24 h / Drip loss 0-72 h / Breast colour L* 0 h / Breast colour a* 0 h / Breast colour b* 0 h / Breast pH 0 h: d-40; for Press loss: determined at 24 h; for TBARS: oxidative stability after simulated retail display; for White striations 0 h / White striations 24 h / Wooden breast 0 h / Wooden breast 24 h: count per level normal 0/mild 1/severe 2; for Breast colour L* 24 h / Breast colour a* 24 h / Breast colour b* 24 h / Breast pH 24 h: d-40, stored at 4° C.

CS(C)(=O)=O [DMS, dimethyl sulfone]
Abdominal fat ([1]; 0.1% DMS in diet (T2)): 1.1%
Breast percentage ([1]; 0.1% DMS in diet (T2)): 23.4%
Carcass yield ([1]; 0.1% DMS in diet (T2)): 74.9%
Drumstick ([1]; 0.1% DMS in diet (T2)): 10.0%
Thigh percentage ([1]; 0.1% DMS in diet (T2)): 11.1%
Abdominal fat ([1]; 0.2% DMS in diet (T3)): 1.1%
Breast percentage ([1]; 0.2% DMS in diet (T3)): 24.1%
Carcass yield ([1]; 0.2% DMS in diet (T3)): 75.9%
Drumstick ([1]; 0.2% DMS in diet (T3)): 10.2%
Thigh percentage ([1]; 0.2% DMS in diet (T3)): 11.2%
Drip loss 0-24 h ([2]; 0.1% DMS in diet (T2)): 2.0%
Drip loss 0-72 h ([2]; 0.1% DMS in diet (T2)): 2.7%
Press loss ([2]; 0.1% DMS in diet (T2)): 20.4%
TBARS ([2]; 0.1% DMS in diet (T2)): 0.125 μg MDA/g
White striations 0 h ([2]; 0.1% DMS in diet (T2)): 21/1/0
White striations 24 h ([2]; 0.1% DMS in diet (T2)): 21/1/0
Wooden breast 0 h ([2]; 0.1% DMS in diet (T2)): 19/3/0
Wooden breast 24 h ([2]; 0.1% DMS in diet (T2)): 15/7/0
Breast colour L* 0 h ([2]; 0.1% DMS in diet (T2)): 56.7
Breast colour a* 0 h ([2]; 0.1% DMS in diet (T2)): 3.6
Breast colour b* 0 h ([2]; 0.1% DMS in diet (T2)): 15.4
Breast pH 0 h ([2]; 0.1% DMS in diet (T2)): 6.8
Breast colour L* 24 h ([2]; 0.1% DMS in diet (T2)): 56.7
Breast colour a* 24 h ([2]; 0.1% DMS in diet (T2)): 5.0
Breast colour b* 24 h ([2]; 0.1% DMS in diet (T2)): 16.7^b
Breast pH 24 h ([2]; 0.1% DMS in diet (T2)): 6.0
Drip loss 0-24 h ([2]; 0.2% DMS in diet (T3)): 1.8%
Drip loss 0-72 h ([2]; 0.2% DMS in diet (T3)): 2.7%
Press loss ([2]; 0.2% DMS in diet (T3)): 20.4%
TBARS ([2]; 0.2% DMS in diet (T3)): 0.122 μg MDA/g
White striations 0 h ([2]; 0.2% DMS in diet (T3)): 20/4/0
White striations 24 h ([2]; 0.2% DMS in diet (T3)): 18/6/0
Wooden breast 0 h ([2]; 0.2% DMS in diet (T3)): 22/2/0
Wooden breast 24 h ([2]; 0.2% DMS in diet (T3)): 12/12/0
Breast colour L* 0 h ([2]; 0.2% DMS in diet (T3)): 56.9
Breast colour a* 0 h ([2]; 0.2% DMS in diet (T3)): 3.5
Breast colour b* 0 h ([2]; 0.2% DMS in diet (T3)): 15.5
Breast pH 0 h ([2]; 0.2% DMS in diet (T3)): 6.8
Breast colour L* 24 h ([2]; 0.2% DMS in diet (T3)): 56.2
Breast colour a* 24 h ([2]; 0.2% DMS in diet (T3)): 5.3
Breast colour b* 24 h ([2]; 0.2% DMS in diet (T3)): 17.3^ab
Breast pH 24 h ([2]; 0.2% DMS in diet (T3)): 6.0
